# Experimental data reported in PMC5494471.
# These are yes or no findings as the source states them, for the method shown. In cells and extracts the contact can be indirect. For some assays here: A result given as binding can be weak or reduced; the word gives no strength.
# B1: Strep-UBAP1 (protein, UniProt Q9NZ09 1-502)
# chain: MASKKLGADFHGTFSYLDDVPFKTGDKFKTPAKVGLPIGFSLPDCLQVVREVQYDFSLEKKTIEWAEEIKKIEEAEREAECKIAEAEAKVNSKSGPEGDSKMSFSKTHSTATMPPPINPILASLQHNSILTPTRVSSSATKQKVLSPPHIKADFNLADFECEEDPFDNLELKTIDEKEELRNILVGTTGPIMAQLLDNNLPRGGSGSVLQDEEVLASLERATLDFKPLHKPNGFITLPQLGNCEKMSLSSKVSLPPIPAVSNIKSLSFPKLDSDDSNQKTAKLASTFHSTSCLRNGTFQNSLKPSTQSSASELNGHHTLGLSALNLDSGTEMPALTSSQMPSLSVLSVCTEESSPPNTGPTVTPPNFSVSQVPNMPSCPQAYSELQMLSPSERQCVETVVNMGYSYECVLRAMKKKGENIEQILDYLFAHGQLCEKGFDPLLVEEALEMHQCSEEKMMEFLQLMSKFKEMGFELKDIKEVLLLHNNDQDNALEDLMARAGAS
# B2: endogenous UBAP1 (protein, UniProt Q9NZ09 1-502)
# chain: B1 chain
# Columns and labels:
# [1] = target: GFP-PumA (Pseudomonas aeruginosa PA7); assay: co-IP
# [2] = target: His-PumA_(1-136) (Pseudomonas aeruginosa PA7); assay: pull-down; […]; 20 mM Tris-HCl pH 7.5, 250 mM NaCl, […]; only the target purified
# [3] = target: His-PumA (Pseudomonas aeruginosa PA7); assay: as above
# [4] = target: HA-PumA (Pseudomonas aeruginosa PA7); assay: co-IP
# [5] = target: HA-PumA_(137-303) (Pseudomonas aeruginosa PA7); assay: co-IP
Binder,binding [1],binding [2],binding [3],binding [4],binding [5]
B1,binds,binds,binds,,
B2,,,,binds,no binding
